These results are taken from PubChem BioAssay AID493014 (National Center for Advancing Translational Sciences (NCATS), 2011).

SMILES strings stand for the structures. The list shows a part of the results. These are further read-outs of the screen, such as a control signal, another cell line or another target. No call is given for them. Most of these compounds were active or inconclusive in the main read-out, so they are no random draw. Potencies come from curve fits of mixed quality, noted in brackets.

The nature of the experiment: qHTS Assay to Find Inhibitors of Chronic Active B-Cell Receptor Signaling. Particulars: ABC-DLBCL IkBa-CBG/CBR reporter, luminescence ratio (green luciferase fused to IkBa over red control in TMD8 lymphoma cells), 4 h. The method in brief:
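Concentration-response series (up to 46 uM) were applied to TMD8 dual-reporter cells for 4 h at 37C with doxycycline. Green/red ratio, after filter-overlap correction, defined %Activity; red signal alone was normalised to basal cells and zero luminescence.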
Background: qHTS replaces the single test concentration by a dilution series.

Where [1] appears, read: measured here: CBR red luminescence, cell number.
Where [2] appears, read: measured here: IkBa-CBG green luminescence.

For `COc1ccc(NC(=S)N2CCC(NC(=O)c3cccc(C)c3)CC2)cc1`, the AC50 under setting [1] was 2.82 µM [rising, partial curve, poor fit]. The same measure, in the same setting: next, `CCCc1ncc(CN2CCCC(C(=O)Nc3ccc(-c4cccc(OC)c4)cc3)C2)cn1` (centres undefined): 10 µM [falling, partial curve].

`C/C(CCc1ccccc1)=N\NC(=O)COc1ccccc1C`: the AC50 under setting [1] was 11.2 µM [rising, partial curve]. On the same count and under the same terms, next, `O=C(NNC(=O)C1COc2ccccc2O1)c1ccccc1O` (centres undefined): 3.66 µM [falling, full curve]; `CSc1ccc(/C=N\Nc2nncn2N)cc1`: 35.5 µM [falling, single point]. Still for that read-out and setting: for `Cc1ccccc1CN1C(=O)c2ccccc2Sc2ccc(C(=O)O)cc21` the value was 25.1 µM [falling, single point]; for `COC(=O)N1N=C(c2ccc(Br)cc2)CC1(O)C(F)(F)F` (centres undefined), 2.06 µM [rising, full curve]. In the case of `O=S(=O)(NCCc1ccccc1)c1cccc2cccnc12`, the AC50 under setting [1] is 5.62 µM [falling, single point]. Regarding `Cc1ccc(C(=O)OC2OC(=O)C(Cl)=C2N2CCOCC2)cc1` (centres undefined), the half-maximal activity concentration (AC50) under setting [1] is 0.461 µM [rising, partial curve, poor fit]. Still for that read-out and setting: for `Cc1csc(NC(=O)CNS(=O)(=O)c2cccs2)n1` the value was 5.01 µM [falling, partial curve, poor fit]; for `CCC(C)/C=C/C1=CC2=C(Cl)C(=O)C3(C)OC(=O)C(C(=O)C(C)C(C)O)C3C2=CO1` (centres undefined), 5.62 µM [rising, partial curve, poor fit]; for `O=C(Nc1ccc(-n2cccn2)cc1)C1CCCCN1Cc1cccc2cccnc12` (centres undefined), 3.55 µM [rising, partial curve, poor fit]. Consider `COC(=O)C1CC23C=CCN4CCC5(c6ccccc6NC15C2C)C43` (centres undefined), for which the AC50 is 8.91 µM [rising, partial curve, poor fit] under setting [1] and 7.08 µM [falling, full curve] under setting [2].

Consider `CCC(=O)Nc1ccccc1C(=O)OCc1ccc(C(=O)c2ccccc2)cc1`, for which the AC50 under setting [1] was 35.5 µM [falling, single point].

Consider `O=S1(=O)C[C@@H](N2CCOCC2)[C@H](N2CCOCC2)C1`, for which the AC50 under setting [1] was 0.708 µM [rising, full curve, poor fit]. The same measure, in the same setting: for `CC1=NN(c2ccccc2)C(=O)C1C(=O)c1ccc(Cl)cc1` (centres undefined) the value was 35.5 µM [falling, single point]. `COc1cc(OC)c2c(-c3cccc(-c4cccc(C)c4)c3)cc(=O)oc2c1`: the AC50 is 29.1 µM [rising, single point] under setting [1] and 18.4 µM [falling, single point] under setting [2]. For the molecule `Cc1ccc(N/N=C(\C#N)C(N)=S)c(C)c1`, the AC50 under setting [1] was 5.17 µM [falling, single point]. Still for that read-out and setting: for `CC(C)C1CC(C(F)(F)F)n2nc(C(=O)O)cc2N1` (centres undefined) the value was 5.62 µM [rising, single point]; for `CCC(C)C1Nc2ccc(C(=O)NCc3ccc4c(c3)OCO4)cc2NC1=O` (centres undefined), 12.6 µM [falling, partial curve]. With `O=C(CSc1nc(-c2ccccc2)ns1)N1CCOCC1`, under setting [1], the AC50 was 35.5 µM [rising, partial curve, poor fit].

In the case of `CCc1ccc(NC(=O)c2cnc(N3CCN(c4ccccn4)CC3)c3ccccc23)cc1`, the AC50 under setting [1] was 3.55 µM [falling, full curve]. Same read-out and setting: next, `COc1ccc(C)cc1NC(=O)CNCc1cccs1`: 11.2 µM [falling, partial curve, poor fit]; `Cc1[nH]n(-c2ccccc2)c(=O)c1/C=N/NC(=O)c1ccc(O)cc1O`: 2.82 µM [falling, full curve]; `CC1CN(CCOc2ccccc2-c2ccccc2)CC(C)O1` (centres undefined): 1.46 µM [rising, full curve]. For the molecule `O=C(c1ccc2c(c1)OCCCO2)c1cccs1`, the AC50 under setting [1] was 22.4 µM [falling, single point]. The same measure, in the same setting: for `CCN1CCN(c2ncc(C(=O)Nc3cc(Cl)ccc3OC)c3ccccc23)CC1` the value was 1.3 µM [falling, full curve, poor fit]; for `Cc1cc(C)nc(N/N=C/c2cc(Br)ccc2O)n1`, 35.5 µM [falling, single point].

On to `CCC1(CC)NC(=O)N(CC(=O)Nc2sc3c(c2C(N)=O)CCC3)C1=O`, for which the AC50 under setting [1] was 4.61 µM [rising, single point]. On to `O=C(c1ccc2c3c(cccc13)CC2)C1CCCN(Cc2ccc(OCCO)cc2)C1` (centres undefined), for which the AC50 under setting [1] was 35.5 µM [falling, single point].

As to `CCOc1ccccc1N1CCN(CC(=O)Nc2ccccc2C(=O)NC2CC2)CC1`, under setting [1], the AC50 is 0.58 µM [rising, full curve, poor fit]. The same measure, in the same setting: for `Oc1c(C=C2N=c3ccccc3=N2)sc(=S)n1-c1ccc2ccccc2c1` the value was 11.2 µM [falling, single point]; for `COc1cccc(CNC(=O)c2ccc3nc[nH]c3c2)c1`, 35.5 µM [falling, single point]; for `COc1ccc(C)cc1NC(=O)CCCN1C(=O)C(c2ccccc2)Oc2cccnc21` (centres undefined), 22.4 µM [falling, single point]. For `COc1ccc(N2CCN(C(=O)CN3c4cccc5cccc(c45)S3(=O)=O)CC2)cc1`, under setting [1], the AC50 is 0.92 µM [rising, full curve, poor fit].

`Cc1ccc(C(=O)N/C(=C/c2ccco2)C(=O)Nc2cccc(C)c2)cc1`: the AC50 under setting [1] is 32.6 µM [falling, single point]. For the molecule `O/N=C\c1ccccc1Oc1ccc(F)cc1`, the AC50 under setting [1] is 35.5 µM [rising, single point]. Regarding `O=C(CCl)Nc1cccc2ncccc12`, the half-maximal activity concentration (AC50) under setting [1] was 25.9 µM [falling, partial curve, poor fit]. On to `Cc1ccc(NC(=O)CCSc2nc(C)cc(C)n2)cc1`, for which the AC50 under setting [1] was 20.6 µM [rising, single point].

On to `COc1ccc(Cl)cc1NC(=O)N1CCC(C)CC1`, for which the AC50 under setting [1] is 17.8 µM [rising, single point]. On the same count and under the same terms, next, `O=C(NCc1ccco1)c1c(F)cccc1Cl`: 23.1 µM [rising, partial curve, poor fit]. Turning to `Cc1nnc(Nc2ccccc2)n(N)c1=O`, the AC50 runs as follows: under setting [1], 29.1 µM [rising, single point]; under setting [2], 29.1 µM [falling, single point]. Regarding `COc1ccccc1CNc1nc2nc3c(c(=O)n2[nH]1)CCC3`, the AC50 under setting [1] is 6.31 µM [falling, partial curve, poor fit]. For the molecule `COc1cc(/C=N/NC(=O)c2ccoc2C)cc(OC)c1O`, the half-maximal activity concentration (AC50) under setting [1] is 16.4 µM [falling, partial curve, poor fit]. Still for that read-out and setting: next, `C#Cc1cccc(NC(=O)c2ccc(Cl)cc2Cl)c1`: 0.447 µM [rising, full curve, poor fit]; `Cc1cc(Cl)c(OCCCCN2CCOCC2)c(Br)c1`: 6.51 µM [rising, partial curve, poor fit]. On the same count and under the same terms, for `CCn1c(SCC(=O)Nc2ccc3c(c2)OCCO3)nnc1-c1cccs1` the value was 0.103 µM [falling, full curve, poor fit]; for `Cc1cc(C)c(N(C(=O)c2csnn2)C(C(=O)NC2CCCC2)c2ccncc2)c(C)c1` (centres undefined), 11.2 µM [rising, partial curve, poor fit]. The same measure, in the same setting: for `COc1ccc(-c2nc3sc(CCNC(=O)Cc4ccc(Cl)cc4)c(C)n3n2)cc1` the value was 0.562 µM [rising, full curve, poor fit]; for `CCc1cccc(Nc2cc(C)nc3nc(C)nn23)c1`, 25.9 µM [rising, partial curve, poor fit]; for `O=C(Nc1cccc2ccccc12)N1CCOCC1`, 6.51 µM [rising, single point].

As to `COc1cc(C(=O)NC2CCN(Cc3nnnn3Cc3cccs3)CC2)cc(OC)c1OC`, under setting [1], the AC50 was 2.06 µM [falling, partial curve, poor fit]. Take `Cc1cccc(OCC(=O)N(Cc2cccs2)C2CCS(=O)(=O)C2)c1C` (centres undefined): under setting [1], the AC50 is 13 µM [falling, partial curve]. The same measure, in the same setting: for `O=C(Nc1ccc2ccccc2n1)C1CCCCC1` the value was 3.98 µM [falling, partial curve]. With `Cc1cccc(NC(=O)c2cnn(-c3ccccc3)c2C)c1C`, the AC50 under setting [1] is 14.1 µM [falling, partial curve, poor fit]. As for `O=C(CCl)N1c2ccccc2CCc2ccccc21`, under setting [1], the AC50 was 35.5 µM [falling, single point]. The same measure, in the same setting: for `CC1CCN(CC(=O)n2c3c(c4ccccc42)CCCC3)CC1` the value was 20.6 µM [rising, single point]; for `O=C(O)COn1c(-c2ccccc2)nc2ccc([N+](=O)[O-])cc21`, 20 µM [falling, single point]; for `O=C(Nc1ccc(Cl)c(Cl)c1)Nc1nnc(-c2ccncc2)s1`, 0.58 µM [rising, full curve, poor fit]. On to `CCc1nc(Nc2ccccc2OC)c2oc3ccccc3c2n1`, for which the AC50 under setting [1] was 10 µM [falling, partial curve, poor fit]. The same measure, in the same setting: for `COc1ccc(CN2CCN(C(=O)c3ccc(CNS(=O)(=O)c4ccc(C)cc4)cc3)CC2)c(OC)c1OC` the value was 2.51 µM [rising, full curve, poor fit]; for `Cc1cc(C=C2C(=O)c3ccccc3C2=O)c(C)n1C`, 29.1 µM [falling, partial curve, poor fit]. Regarding `CCOC(=O)C1=C(CC)OC(N)=C(C#N)C1c1ccc(OC)c(C)c1OC` (centres undefined), the concentration at half-maximal activity (AC50) under setting [2] is 18.4 µM [falling, partial curve, poor fit].

`COc1ccc(C(=O)Nc2cccc(/C(C)=N\NC(=O)c3ccoc3C)c2)cc1OC`: under setting [1], the concentration at half-maximal activity (AC50) was 4.47 µM [falling, full curve]. On the same count and under the same terms, for `O=c1c2cc(Br)ccc2nc(-c2ccccc2)n1O` the value was 1.41 µM [falling, full curve]; for `CC(=O)Nc1ccc(Nc2nc3c(S(=O)(=O)c4ccc(C)c(C)c4)nnn3c3ccccc23)cc1`, 10 µM [falling, partial curve, poor fit].

Usually AC50 stands for the midpoint of the concentration-response curve, whichever way the signal moves.
